# Assay results: PubChem BioAssay AID1487 (National Center for Advancing Translational Sciences (NCATS), 2009)
# The other results are listed elsewhere or left out. The main result of the screen is listed elsewhere. These columns were measured beside it and carry no call. Compounds called inactive in the main read-out are mostly missing here. Words in brackets tell the shape of the fitted curve; partial curves, single points and poor fits give uncertain potencies.
# Experiment: qHTS Assay for Modulators of Lamin A Splicing
# Conditions: HeLa LMNA splicing GFP/RFP minigene ratio, 48 h
# In short: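 S3 HeLa cells stably expressing lamin A-EGFP splicing minigene plus DsRed2, 600 cells/well, 48 h compound exposure at 37C. Laser-scanning cytometry; analysed as GFP (500-530 nm)/RFP (575-640 nm) total intensity ratio; 0.5% DMSO vehicle.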
# [1] = measured here: GFP splicing reporter channel
# [2] = measured here: RFP viability control channel
Structure (SMILES),AC50 [1],AC50 [2]
Cc1ccc(S/C=C\C(=O)c2ccccc2)cc1,"20 µM [falling, single point]","35.5 µM [falling, single point]"
COc1cccc(NC(=O)CSc2c3c(nc4ccccc24)CCCC3)c1,,"25.1 µM [falling, single point]"
Nc1nc(NC(=O)c2cccs2)nn1-c1ccccc1,"6.31 µM [falling, partial curve, poor fit]","2.24 µM [falling, partial curve, poor fit]"
CSc1cccc(NS(=O)(=O)c2ccc3c(c2)oc(=O)n3C)c1,,"17.8 µM [rising, single point]"
Cc1ccc(-c2nnc3c4ccccc4c(C)nn23)cc1S(=O)(=O)N1CCN(CCO)CC1,,"35.5 µM [rising, single point]"
Cc1ccc(S(=O)(=O)O)cc1C,,"1.12 µM [falling, full curve, poor fit]"
O=C(CN1CCCc2ccccc21)N/N=C/c1ccccc1O,,"10 µM [rising, partial curve]"
CCOC(=O)c1cccc(NC(=O)CN(c2ccc(C)cc2)S(=O)(=O)c2c(C)noc2C)c1,"31.6 µM [rising, single point]",
COc1ccc(CN2CSC(=S)N(Cc3ccc(OC)cc3)C2)cc1,,"3.98 µM [falling, partial curve]"
COc1ccc(-c2noc(CN(C)S(=O)(=O)c3ccc(C)cc3)n2)cc1,,"20 µM [rising, single point]"
CO/N=C(\Cn1ncc(N2CCCC2)c(Cl)c1=O)c1ccc(Cl)cc1,"17.8 µM [rising, single point]","35.5 µM [rising, single point]"
CCOc1ccc(S(=O)(=O)N2CCC(c3ccncc3)CC2)cc1,"1.12 µM [falling, full curve, poor fit]",
C=CCNC(=O)Nc1ccc(Br)cc1Cl,"0.00316 µM [rising, full curve, poor fit]","15.8 µM [rising, partial curve, poor fit]"
O=S(=O)(c1cccc2nsnc12)N1CCN(C/C=C\c2ccccc2)CC1,,"22.4 µM [rising, single point]"
Cc1cc(C)n(-c2nc(C)c(C)c(=O)n2CC(=O)Nc2cccc([N+](=O)[O-])c2)n1,"0.00447 µM [rising, full curve, poor fit]",
Cc1cccc(NCc2nnc(-c3ccccc3)o2)c1C,,"1.58 µM [falling, partial curve, poor fit]"
CCCCCCCCCCCCCCCCCC(=O)OC(CC(=O)O)C[N+](C)(C)C (centres undefined),"20 µM [falling, partial curve]","11.2 µM [falling, partial curve]"

# Structural class: the compounds so far containing an aryl thioether with sulfur outside any ring (3)
Structure (SMILES),AC50 [1],AC50 [2]
Cc1ccc(S/C=C\C(=O)c2ccccc2)cc1,"20 µM [falling, single point]","35.5 µM [falling, single point]"
COc1cccc(NC(=O)CSc2c3c(nc4ccccc24)CCCC3)c1,,"25.1 µM [falling, single point]"
CSc1cccc(NS(=O)(=O)c2ccc3c(c2)oc(=O)n3C)c1,,"17.8 µM [rising, single point]"

# Further compounds.

Structure (SMILES),AC50 [1],AC50 [2]
COc1ccc(N2CCN(C(CNC(=O)c3ccco3)c3cccnc3)CC2)cc1 (centres undefined),"20 µM [rising, partial curve, poor fit]","14.1 µM [rising, single point]"
CCOc1ccc(N(C(=O)/C=C/C(=O)Nc2cc(C)on2)C(C(=O)NC2CCCC2)c2ccccc2C)cc1 (centres undefined),"35.5 µM [falling, single point]","35.5 µM [falling, single point]"
Cc1cc(Nc2ccc(Br)c(C)c2)n2nc(-c3ccco3)nc2n1,"12.6 µM [falling, partial curve]","35.5 µM [falling, single point]"
NC(=NCCc1ccccc1)NS(=O)(=O)c1ccc2ccccc2c1,"8.91 µM [rising, partial curve, poor fit]","12.6 µM [rising, partial curve, poor fit]"
CN(CC(=O)Nc1cc([N+](=O)[O-])ccc1Cl)Cc1ccc(Br)cc1,,"35.5 µM [rising, single point]"
O=C1N/C(=C\c2ccc(O)cc2)C(=O)c2ccccc21,"35.5 µM [falling, single point]","31.6 µM [falling, single point]"
CCOc1ccccc1OCc1nn2c(-c3ccc(C)cc3)nnc2s1,,"12.6 µM [rising, single point]"
O=C(CSc1nnnn1-c1ccc2c(c1)OCCO2)Nc1nc2c(s1)CCCC2,"2.51 µM [rising, full curve, poor fit]","6.31 µM [rising, partial curve]"
O=C(O)c1c(Cl)c(Cl)c(Cl)c(Cl)c1-c1c2cc(I)c(=O)c(I)c-2oc2c(I)c(O)c(I)cc12,"4.47 µM [rising, partial curve, poor fit]","0.398 µM [rising, single point]"
COc1ccc(S(=O)(=O)NCC(c2ccc(N(C)C)cc2)N2CCc3ccccc32)cc1F (centres undefined),"14.1 µM [falling, single point]",
COc1ccc(/C=C2\CCCC3C2=NC(=S)NC3c2ccc(OC)cc2)cc1 (centres undefined),"3.98 µM [rising, full curve, poor fit]","7.08 µM [rising, partial curve]"
Cc1nn2c(=O)cc(COC(=O)c3cccc(NC(=O)c4ccc(F)cc4)c3)nc2s1,,"20 µM [rising, partial curve, poor fit]"
O=C(Nc1ccc2c(c1)OCCO2)c1ccc(CN2CCOCC2)cc1,"1.78 µM [rising, partial curve, poor fit]","12.6 µM [rising, partial curve]"
CCn1c(SCC(=O)N(C(C)C)C(C)C)nnc1-c1cc2ccccc2cc1O,,"11.2 µM [rising, partial curve]"
NCc1ccccc1CC(=O)N[C@@H]1C(=O)N2C(C(=O)O)=C(CSc3nnnn3CC(=O)O)CS[C@@H]12,,"0.0562 µM [falling, full curve, poor fit]"
COc1ccc(-c2ccc(CCC(=O)O)n2NC(=O)c2ccc(C(C)(C)C)cc2)cc1,"0.02 µM [rising, full curve, poor fit]",
c1ccc(-c2cc3c(NCC4COc5ccccc5O4)ncnc3s2)cc1 (centres undefined),"7.94 µM [rising, partial curve]","11.2 µM [rising, partial curve]"
